# Experimental data as given in patent US5482934A, “Pregna-1,4-diene3,20-dione-16-17-acetal-21 esters, process for their preparation, composition, and methods for the treatment of inflammatory conditions” (priority 1994, dated 1996).
# System: cotton-pellet-induced granuloma
# Experiment: cotton pellet granuloma bioassay, topical anti-inflammatory activity (inhibitory effect on granuloma weight)
# Assay type: in vivo, Male Wistar rats
# Conditions: budesonide = 1
# Text: The glucocorticoid activity of these products was studied in comparison with that of budesonide: pregna-1,4-diene-3,20-dione, 16,17-butylidenebis(oxy)-11-21-dihydroxy-(11β,16α). The pharmacologic action on the acetonides triamcinolone acetonide and flunisolide was also studied.
# Anti-inflammatory effects of the compounds were screened in the cotton pellet granuloma bioassay for identification of lead compounds. (Meier et al., Eperimentia 6, 469, 1950). Male Wistar rats were used, ranging in weight between 90 and 120 g, at the rate of 10 animals per group, previously identified and quartered in individual cages. The animals had free access to feed and drink throughout the trial.
# Cotton pellets weighing exactly 20 mg were prepared, sterilized for 2 hr. at 160° C. soaked with 50 λl solution of the product or with the solvent before implantation, and subsequently the solvent is evaporated before application. The implantation was performed subcutaneously in the axillary zone of the animals previously anesthetized with ether (right axilla pellet with product, left axilla pellet with solvent). Animals in which pellets without product were implanted were used as controls.
# The drug was applied in alcohol solution at 4 dosage levels. Once the pellets were implanted, the animals were kept under normal rearing conditions, isolated for 7 days and then weighed, after which they were sacrificed by exsanguination.
# The topical activity was determined by the inhibitory effect on the weight of the cotton-pellet-induced granuloma; the granulomas were extracted and weighed (pellet and connective tissue surrounding them, dried for 24 hr in a 60° oven, and weighed).
# Anti-inflammatory ED50 (topical effect), thymus inhibition ED50 (systemic effect), therapeutic index (systemic ED50 /topical ED50), and the therapeutic index relative to budesonide (=1).
# All of the ED50 values were calculated from the linear regression lines with the confidence limits.
row,Compound,Therapeutic index with respect to budesonide
1,"CCCCC1OC2CC3C4CCC5=CC(=O)C=CC5(C)C4C(O)CC3(C)C2(C(=O)COC(C)=O)O1 [Compound 11, (22S)-pregna 1,4-diene-3,20-dione-21-(acetyloxy)-11-hydroxy-16,17-(pentylidene)-bis-(oxy)-(11β,16α)]",11.8
2,"CC(C)C(=O)OCC(=O)C12OC(C3CCCCC3)OC1CC1C3CC(F)C4=CC(=O)C=CC4(C)C3(F)C(O)CC12C [Compound 13, (22R,S)-pregna 1,4-diene-3,20-dione-16,17-(cyclohyxylmethylidine)-bis-(oxy)-6,9-difluoro-11-hydroxy-21-(methyl-1-oxo-propoxy)-(11β,16α)]",11
3,CC(C)C(=O)OCC(=O)C12OC(C3CCCCC3)OC1CC1C3CC(F)C4=CC(=O)C=CC4(C)C3(F)C(O)CC12C (stereo not drawn) [Compound 15],9.9
4,"CC(C)C(=O)OCC(=O)C12OC(C3CCCCC3)OC1CC1C3CC(F)C4=CC(=O)C=CC4(C)C3(F)C(O)CC12C [Compound 14, (22S)-pregna-1,4-diene-3,20-dione-16,17-(cyclohexylmethylidine)-bis-(oxy)-6,9-difluoro-11-hydroxy-21-(s-methyl-1-oxo-propoxy)-(11β,16α)]",15
5,CC(C)C(=O)OCC(=O)C12OC(C3CCCCC3)OC1CC1C3CCC4=CC(=O)C=CC4(C)C3C(O)CC12C (stereo not drawn) [Compound 9],24.5
6,CCCCC1OC2CC3C4CCC5=CC(=O)C=CC5(C)C4C(O)CC3(C)C2(C(=O)COC(C)=O)O1 (stereo not drawn) [Compound 12],7.2
7,"CC1(C)O[C@@H]2C[C@H]3[C@@H]4CCC5=CC(=O)C=C[C@]5(C)[C@@]4(F)[C@@H](O)C[C@]3(C)[C@]2(C(=O)CO)O1 (stereo in doubt) [TRIAMCINOLONE ACETONIDE, triamcinolone acetonide, reference compound]",0.6
8,"CCCCC1OC2CC3C4CCC5=CC(=O)C=CC5(C)C4C(O)CC3(C)C2(C(=O)COC(C)=O)O1 [Compound 10, (22R,S)-of pregna 1,4-diene-3,20-dione-21-(acetyloxy)-11-hydroxy-16,17-(pentylidene) bis(oxy)-(11β,16α)]",8.9
9,"CC(C)C(=O)OCC(=O)C12OC(C3CCCCC3)OC1CC1C3CCC4=CC(=O)C=CC4(C)C3C(O)CC12C [Compound 8, (22,S)-pregna 1,4-diene-3,20-dione 16,17-[[cyclohexyl-methylidyne]bis (oxy)]-11-hydroxy-21-(2-methyl-1-oxo-propoxy)-(11β,16α)]",27.2
10,"CCCC1O[C@@H]2C[C@H]3[C@@H]4CCC5=CC(=O)C=C[C@]5(C)[C@H]4[C@@H](O)C[C@]3(C)[C@]2(C(=O)CO)O1 (stereo partly drawn) [BUDESONIDE, pregna-1,4-diene-3,20-dione, 16,17-butylidenebis(oxy)-11-21-dihydroxy-(11β,16α), reference compound]",1
11,"CC(C)C(=O)OCC(=O)C12OC(C3CCCCC3)OC1CC1C3CCC4=CC(=O)C=CC4(C)C3C(O)CC12C [Compound 7, (22R,S)-pregna 1,4-diene-3,20-dione, 16,17-[[cyclohexylmethylidyne]bis (oxy)]-11-hydroxy-21-(2-methyl-1-oxo-propoxy)-(11β,16α)]",26
12,"CC1(C)O[C@@H]2C[C@H]3[C@@H]4C[C@H](F)C5=CC(=O)C=C[C@]5(C)[C@H]4[C@@H](O)C[C@]3(C)[C@]2(C(=O)CO)O1 [FLUNISOLIDE, flunisolide, reference compound]",0.4
